Consider one molecule from patent publication US20090087428A1.

Amino acid sequences for entries named in this document (tags omitted). A change or cut given only in a name is not applied to a line headed by its entry.
UniProt P31994: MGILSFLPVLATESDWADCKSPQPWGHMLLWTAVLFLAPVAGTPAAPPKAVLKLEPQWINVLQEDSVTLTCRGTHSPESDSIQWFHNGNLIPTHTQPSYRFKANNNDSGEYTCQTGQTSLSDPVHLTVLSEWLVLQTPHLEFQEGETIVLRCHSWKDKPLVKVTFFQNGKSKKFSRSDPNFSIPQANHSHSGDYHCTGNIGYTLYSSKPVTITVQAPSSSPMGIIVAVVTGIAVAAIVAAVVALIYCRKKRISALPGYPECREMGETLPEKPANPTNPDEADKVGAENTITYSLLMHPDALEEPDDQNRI

Assay [1] has as its target GST-huFcγRIIB (human FcγRIIB extracellular domain-Gly-His6-GST fusion protein) (human) [GST: P08515]. Put plainly: ELISA, plate-coated GST fusion proteins (FIG. 4).
The target of assay [2] is GPI-huFcγRIIB on CHO cells (human) (UniProt P31994). Description: indirect immunofluorescence, flow cytometry on CHO cells (FIG. 5). Background: A flow cytometer gives signals particle by particle.

No constants are given. Whether binding was seen depends on the method and setting. Some binding calls cover weakened binding; strength is not graded here.

B1: Antibody 5A6.2.1 (anti-human FcγRIIB monoclonal antibody) (antibody)
VH: EVKLEESGGGLVQPGGSMKLSCVASGFTFSDAWMDWVRQSPERGLEWVAEIRSKPNNHATYYAESVKGRFTISRDDSKSSVYLQMTSLRPEDTGIYYCTHFDYWGQGTTLTVSSAKTTGPSVFPLAPSSKSTSGGTAALGCLVKDYFPEPVTVSWNSGALTSGVHTFPAVLQSSGLYSLSSVVTVPSSSLGTQTYICNVNHKPSNTKVDKKVEPKSCDKTHT
VL: DIQMTQSPSSLSASLGERVSLTCRASQEISGYLSWFQQKPDGTIKRLIYAASALDSGVPKRFSGSWSGSDYSLTISSLESEDFADYYCLQYVSYPLTFGAGTKLELKRTVAAPSVFIFPPSDEQLKSGTASVVCLLNNFYPREAKVQWKVDNALQSGNSQESVTEQDSKDSTYSLSSTLTLSKADYEKHKVYACEVTHQGLSSPVTKSFNRGEC
For B1, the binding entry in assay [1] and in assay [2] was “binds” in each case.
